No constants are given. Whether binding was seen depends on the method and setting. In cells and extracts the contact can be indirect. Binding can be weak; no strength is given.
Target: GFP-ZmLDAP1 (maize (Zea mays, inbred line B73)) (UniProt B8A1N1)
Test: co-IP

- binding: binds
Substance: ZmPUX10-6 × His (from UniProt A0A804LMB5)

Reference: publication doi:10.1101/2023.02.02.526882
